To fix the notation:
B1: SNX32 (endogenous, RPE-1) (protein, UniProt Q86XE0 1-403)
chain: METYAEVGKEGKPSCASVDLQGDSSLQVEISDAVSERDKVKFTVQTKSCLPHFAQTEFSVVRQHEEFIWLHDAYVENEEYAGLIIPPAPPRPDFEASREKLQKLGEGDSSVTREEFAKMKQELEAEYLAIFKKTVAMHEVFLQRLAAHPTLRRDHNFFVFLEYGQDLSVRGKNRKELLGGFLRNIVKSADEALITGMSGLKEVDDFFEHERTFLLEYHTRIRDACLRADRVMRAHKCLADDYIPISAALSSLGTQEVNQLRTSFLKLAELFERLRKLEGRVASDEDLKLSDMLRYYMRDSQAAKDLLYRRLRALADYENANKALDKARTRNREVRPAESHQQLCCQRFERLSDSAKQELMDFKSRRVSSFRKNLIELAELELKHAKASTLILRNTLVALKGEP
B2: syndecan-1 (endogenous, RPE-1) (protein, UniProt P18827 23-310)
chain: QIVATNLPPEDQDGSGDDSDNFSGSGAGALQDITLSQQTPSTWKDTQLLTAIPTSPEPTGLEATAASTSTLPAGEGPKEGEAVVLPEVEPGLTAREQEATPRPRETTQLPTTHLASTTTATTAQEPATSHPHRDMQPGHHETSTPAGPSQADLHTPHTEDGGPSATERAAEDGASSQLPAAEGSGEQDFTFETSGENTAVVAVEPDRRNQSPVDQGATGASQGLLDRKEVLGGVIAGGLVGLIFAVCLVGFMLYRMKKKDEGSYSLEEPKQANGGAYQKPTKQEEFYA
B3: FIG4 (endogenous, RPE-1) (protein, UniProt Q92562 1-907)
chain: MPTAAAPIISSVQKLVLYETRARYFLVGSNNAETKYRVLKIDRTEPKDLVIIDDRHVYTQQEVRELLGRLDLGNRTKMGQKGSSGLFRAVSAFGVVGFVRFLEGYYIVLITKRRKMADIGGHAIYKVEDTNMIYIPNDSVRVTHPDEARYLRIFQNVDLSSNFYFSYSYDLSHSLQYNLTVLRMPLEMLKSEMTQNRQESFDIFEDEGLITQGGSGVFGICSEPYMKYVWNGELLDIIKSTVHRDWLLYIIHGFCGQSKLLIYGRPVYVTLIARRSSKFAGTRFLKRGANCEGDVANEVETEQILCDASVMSFTAGSYSSYVQVRGSVPLYWSQDISTMMPKPPITLDQADPFAHVAALHFDQMFQRFGSPIIILNLVKEREKRKHERILSEELVAAVTYLNQFLPPEHTIVYIPWDMAKYTKSKLCNVLDRLNVIAESVVKKTGFFVNRPDSYCSILRPDEKWNELGGCVIPTGRLQTGILRTNCVDCLDRTNTAQFMVGKCALAYQLYSLGLIDKPNLQFDTDAVRLFEELYEDHGDTLSLQYGGSQLVHRVKTYRKIAPWTQHSKDIMQTLSRYYSNAFSDADRQDSINLFLGVFHPTEGKPHLWELPTDFYLHHKNTMRLLPTRRSYTYWWTPEVIKHLPLPYDEVICAVNLKKLIVKKFHKYEEEIDIHNEFFRPYELSSFDDTFCLAMTSSARDFMPKTVGIDPSPFTVRKPDETGKSVLGNKSNREEAVLQRKTAASAPPPPSEEAVSSSSEDDSGTDREEEGSVSQRSTPVKMTDAGDSAKVTENVVQPMKELYGINLSDGLSEEDFSIYSRFVQLGQSQHKQDKNSQQPCSRCSDGVIKLTPISAFSQDNIYEVQPPRVDRKSTEIFQAHIQASQGIMQPLGKEDSSMYREYIRNRYL

Protein sequences, listed by entry. Tags and fused reporters are not part of them.
UniProt O00560: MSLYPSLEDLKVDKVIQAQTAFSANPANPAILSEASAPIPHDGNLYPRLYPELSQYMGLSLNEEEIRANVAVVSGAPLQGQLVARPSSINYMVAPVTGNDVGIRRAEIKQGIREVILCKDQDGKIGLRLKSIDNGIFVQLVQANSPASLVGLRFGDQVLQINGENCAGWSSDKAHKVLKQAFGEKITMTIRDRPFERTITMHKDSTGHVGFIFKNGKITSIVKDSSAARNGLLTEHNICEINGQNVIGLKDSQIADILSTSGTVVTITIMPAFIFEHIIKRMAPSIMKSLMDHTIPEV
UniProt Q7Z3U7: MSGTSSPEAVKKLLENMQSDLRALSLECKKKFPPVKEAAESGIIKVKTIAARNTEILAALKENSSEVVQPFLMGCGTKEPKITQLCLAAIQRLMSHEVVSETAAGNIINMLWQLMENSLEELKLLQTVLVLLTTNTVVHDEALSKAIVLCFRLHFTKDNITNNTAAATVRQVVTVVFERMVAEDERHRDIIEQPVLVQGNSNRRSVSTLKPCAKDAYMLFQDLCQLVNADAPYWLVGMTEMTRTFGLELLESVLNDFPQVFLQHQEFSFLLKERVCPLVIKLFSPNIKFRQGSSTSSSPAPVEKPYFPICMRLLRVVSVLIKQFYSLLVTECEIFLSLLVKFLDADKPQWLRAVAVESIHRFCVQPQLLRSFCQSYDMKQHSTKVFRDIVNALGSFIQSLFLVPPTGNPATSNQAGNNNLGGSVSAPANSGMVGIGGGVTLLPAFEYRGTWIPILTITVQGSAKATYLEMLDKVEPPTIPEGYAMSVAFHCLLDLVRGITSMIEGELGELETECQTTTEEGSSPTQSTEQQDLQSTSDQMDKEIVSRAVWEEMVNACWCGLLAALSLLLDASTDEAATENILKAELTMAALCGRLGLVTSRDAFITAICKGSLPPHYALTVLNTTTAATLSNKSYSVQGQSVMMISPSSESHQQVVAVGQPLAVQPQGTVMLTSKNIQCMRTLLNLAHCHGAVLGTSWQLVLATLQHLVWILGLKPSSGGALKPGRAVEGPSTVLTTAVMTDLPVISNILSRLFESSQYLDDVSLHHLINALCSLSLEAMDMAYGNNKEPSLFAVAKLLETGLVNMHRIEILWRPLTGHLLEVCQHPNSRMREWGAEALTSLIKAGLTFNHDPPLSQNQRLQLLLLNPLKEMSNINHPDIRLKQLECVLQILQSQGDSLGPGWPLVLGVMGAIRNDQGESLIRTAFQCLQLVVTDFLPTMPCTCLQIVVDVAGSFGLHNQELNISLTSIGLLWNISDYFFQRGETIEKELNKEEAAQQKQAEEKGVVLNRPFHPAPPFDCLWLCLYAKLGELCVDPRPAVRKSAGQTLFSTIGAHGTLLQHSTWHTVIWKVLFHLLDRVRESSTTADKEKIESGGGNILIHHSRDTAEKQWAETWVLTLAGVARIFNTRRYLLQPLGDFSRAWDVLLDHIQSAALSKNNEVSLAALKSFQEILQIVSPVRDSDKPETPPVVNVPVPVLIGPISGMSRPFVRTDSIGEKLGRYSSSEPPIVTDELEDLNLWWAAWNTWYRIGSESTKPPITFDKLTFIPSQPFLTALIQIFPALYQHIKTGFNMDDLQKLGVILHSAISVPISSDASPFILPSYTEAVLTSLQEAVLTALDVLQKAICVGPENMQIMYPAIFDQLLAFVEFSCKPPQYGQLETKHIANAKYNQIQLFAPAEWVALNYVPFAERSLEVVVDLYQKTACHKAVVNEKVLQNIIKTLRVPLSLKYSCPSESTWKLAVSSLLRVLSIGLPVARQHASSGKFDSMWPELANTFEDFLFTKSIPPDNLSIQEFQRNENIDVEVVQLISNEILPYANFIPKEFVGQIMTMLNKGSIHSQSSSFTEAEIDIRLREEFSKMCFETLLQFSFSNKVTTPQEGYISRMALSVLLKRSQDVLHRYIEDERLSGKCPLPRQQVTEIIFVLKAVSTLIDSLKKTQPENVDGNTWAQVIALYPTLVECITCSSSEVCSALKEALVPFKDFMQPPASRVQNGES
UniProt Q13596: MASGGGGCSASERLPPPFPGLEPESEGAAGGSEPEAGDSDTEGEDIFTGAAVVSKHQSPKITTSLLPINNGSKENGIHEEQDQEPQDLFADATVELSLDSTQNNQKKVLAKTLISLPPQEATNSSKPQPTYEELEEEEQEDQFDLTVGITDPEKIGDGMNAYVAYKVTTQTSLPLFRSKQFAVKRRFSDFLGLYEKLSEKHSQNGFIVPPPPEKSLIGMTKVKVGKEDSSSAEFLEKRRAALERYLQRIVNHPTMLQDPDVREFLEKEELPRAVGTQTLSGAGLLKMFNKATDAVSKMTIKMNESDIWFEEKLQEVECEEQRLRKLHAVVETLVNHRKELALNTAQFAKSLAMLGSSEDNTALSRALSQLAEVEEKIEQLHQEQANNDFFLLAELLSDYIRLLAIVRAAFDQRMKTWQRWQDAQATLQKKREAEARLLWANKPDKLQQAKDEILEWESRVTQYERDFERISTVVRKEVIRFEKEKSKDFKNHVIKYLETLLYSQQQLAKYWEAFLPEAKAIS

These are yes or no findings as the source states them, for the method shown. Binding seen in cells or lysates may run through a third protein. Here binding means that the protein was enriched with, or labelled near, the bait; the list need not be complete. A no says only that the protein was not detected with the bait.

One test has as its target GFP-SNX3 (RPE-1, lentivirally transduced) (human) (UniProt O60493). Kind of test: affinity purification with mass spectrometry; SILAC: RPE1 cells lentivirally transduced with GFP (R0K0) or GFP-SNX3 (R6K4); GFP-trap beads 60 min; LC-MS/MS on Orbitrap Velos; filter > 3-fold enrichment over GFP and two or more peptides.
Take “syntenin (endogenous, RPE-1) (from UniProt O00560 1-298)”: the binding result is given as “binds”.
On the same count and under the same terms, next, “MON2 (endogenous, RPE-1) (from UniProt Q7Z3U7 1-1717)”: “binds”; “VPS26A (endogenous, RPE-1) (from UniProt O75436 1-327)”: “binds”; “SNX1 (endogenous, RPE-1) (from UniProt Q13596 1-522)”: “no binding”.

The target is the same in a further test. The test is described as above. The source holds these as a separate data set.
In the case of B1, the binding entry is on record as “no binding”.
Regarding B2, the binding entry is “binds”.
On to B3, for which the binding entry is “binds”.

For the origin of these results see article PMC6137200.
